Laboratory results from patent publication US20180153993A1, “COMPOSITIONS AND METHODS FOR TREATMENT AND PREVENTION OF CARDIOVASCULAR DISEASES” (The Chinese University of Hong Kong, priority 2016, published 2018).
For at least one compound, name, drawing or mass did not settle the structure.

Columns and labels:
YAP/TAZ [1] = test: YAP/TAZ target gene expression (CTGF, CYR61), quantitative real-time PCR in HUVECs; format: cell-based, human; conditions: CTGF and CYR61
Experimental: RNA was extracted by using TRIzol Reagent (Thermo) according to the manufacturer's protocol. cDNA was synthesized using a High-Capacity cDNA Reverse Transcription Kit (Thermo). Quantitative PCR was performed using SYBR Select (Thermo) following the manufacturer's protocol. GAPDH was used as the internal control. Primers used for quantitative real-time PCR were included in Table 2.
HUVECs and human aortic ECs were purchased from Lonza (EGM, Clonetics, Lonza, Walkersville, Md., USA). Lonza guarantees that the cells express CD31/105, von Williebrand Factor VIII, and are positive for acetyated low density lipoprotein uptake. Mycoplasma contamination was not tested during the experiments. HUVECs maintained in EGM supplemented with EGS and FBS at 37° C. in an incubator with 95% humidified air and 5% CO2 and passed every 3 days. Cells within seven passages were used in in vitro study.

YAP/TAZ [2] = test: CA-YAP/TAZ-induced pro-inflammatory gene expression in HUVECs; format: cell-based, human; conditions: HUVECs transfected with CA-YAP/TAZ

Structure (SMILES) | YAP/TAZ target gene expression (YAP/TAZ [1]) | CA-YAP/TAZ-induced pro-inflammatory gene expression (YAP/TAZ [2])
CCC(C)(C)C(=O)O[C@H]1C[C@@H](C)C=C2C=C[C@H](C)[C@H](CC[C@@H]3C[C@@H](O)CC(=O)O3)[C@H]21 [simvastatin, Simvastatin] | suppresses expression of YAP/TAZ target genes | 
Oc1c2ccccc2c2c3c(cccc13)N=N2 [SP600125] |  | suppressed YAP/TAZ-induced pro-inflammatory gene expression
